Several values for one entry are separate records, joined by “and”; a condition that tells them apart may be missing. Identical values can stand only once. In all, about 410,000 compounds went through this assay and about 18,000 (4.4%) were called active. The inconclusive results got no clear call from the source; some entries with a clear call stand among them for comparison. Cut-off read from the data, not from the text of the source: active = activity change below about -60%; inconclusive = no clear call, values can overlap the other calls; inactive = above about -39%.
assay: qHTS Assay for inhibitors of the human cytomegalovirus (HCMV); settings: HFF cells, HCMV-luciferase reporter, 72 h; at 57.5 µM; active compounds read low
How it was run: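 Steps: HFFs plated, 16 h 37C; compounds added; HCMV-luciferase added to MOI 1 PFU/cell; 72 h 37C; OneGlo reagent, 5 min room temperature; luminescence read, normalized to controls.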
% is set by controls: 0 for no effect and ±100 for the full control effect.

| SMILES | activity change, negative = inhibition |
| --- | --- |
| O=C1CCN(CCc2ccccc2)CCN1[C@H](CO)c1ccccc1 | inconclusive: -43.4% |
| Cc1cc(C)cc(-n2ccnc2SCC(=O)Nc2ccc3c(c2)OCCO3)c1 | inconclusive: -40.9% |
| CCOC(=O)c1c2c3c(c(Cl)ccc3[nH]c1=O)C(=O)c1ccccc1-2 | active: -97.1% |
| Cc1cc2[nH]c(=O)c(=O)[nH]c2cc1S(=O)(=O)N1CCN(c2cccc(C)c2C)CC1 | inactive: 11.5% and inactive: 6.8% |
| OCc1csc(=Nc2ccccc2)n1-c1ccccc1 | inconclusive: -40.6% |
| Fc1cccc(Cl)c1CSc1ccc2nnc(-c3ccccn3)n2n1 | inconclusive: -46.4% |
| COC(=O)CCc1sc(NC2CCCCC2)nc1-c1ccc(OC)cc1 | inactive: 44.4% |
| Cc1ccc(Cl)cc1N1CCN(C(=O)c2cccn2-c2nnc(N3CCCC3)s2)CC1 | inconclusive: 0% |
| C=CCC(=O)N1CCCC(CNC(=O)c2ccc(-c3ccccc3)cc2)C1 (configuration not stated) | inconclusive: -41.4% |
| COC(=O)CC/C(O)=C1\C(=O)CC(C)(C)CC1=NCc1nc2ccccc2[nH]1 | inconclusive: -42.5% |
| CC1=CC(C)(C)N(C(=O)CCl)c2cc(C)ccc21 | inactive: -27.2% |
| Cc1ccc2c(=O)c(C(=O)c3ccc(F)cc3)cn(CC(=O)NCc3ccccc3Cl)c2n1 | inactive: 2.78% |
| O=C(CCCN1C(=O)/C(=C/c2ccc(F)cc2)SC1=S)NC1CCS(=O)(=O)C1 (configuration not stated) | active: -72.3% |
| CNS(=O)(=O)c1cn(CC(=O)Nc2ccc(C)c(N(C)C)c2)cc1S(=O)(=O)NC | inconclusive: 0% |
| CCN(C(=O)c1cc(S(=O)(=O)N2CCc3ccccc32)cn1C)c1cccc(C)c1 | active: -74.3% |
| O=S(=O)(NC(=NCc1ccccc1)c1ccc(F)cc1)c1ccc(Cl)cc1 | inconclusive: -45.3% |
| COc1cc(/C=C/C(=O)c2ccc(F)cc2)cc(OC)c1OC | active: -112% |
| COc1cccc(/C=N/Nc2cc(-n3nc(C)cc3-c3ccccc3)ncn2)c1O | active: -96.1% |
| Cc1ccc(N2C(=O)C(CN3CCOCC3)C2c2ccccc2)cc1 (configuration not stated) | inconclusive: -56% |

| SMILES | activity change, negative = inhibition |
| --- | --- |
| CCN(CC)S(=O)(=O)c1ccc(C)c(NC(=O)Cn2c(=O)cnc3ccccc32)c1 | inconclusive: -48.4% |
| O=C(/C=C/c1ccc(Cl)cc1Cl)N1CCN(c2ccc([N+](=O)[O-])c(N3CCOCC3)c2)CC1 | inconclusive: -49.8% |
| CC(C)(C)NC(=S)NNC(=O)c1ccc2ncccc2c1 | inactive: 91.2% |
| O=C(Nc1ccc(-c2nnc3n2CCCCC3)cc1)c1cc2ccccc2o1 | inactive: -32.6% |
| CCCc1cc(C(=O)OC)c(NC(=O)c2cc(C)on2)s1 | inactive: -4.44% |
| Cc1cc2oc(=O)cc(-c3cc4ccccc4o3)c2cc1O | inactive: -36.9% |
| COc1ccc(Cn2nnnc2C(c2ccccc2Cl)N2CCN(C)CC2)cc1 (configuration not stated) | active: -63.5% |
| CCn1cc(Cl)c(C(=O)NNC(=O)CCn2cc([N+](=O)[O-])cn2)n1 | inconclusive: -48.6% |
| Cc1cc(C)c(C#N)c(SCCS(=O)(=O)c2ccc(C(C)(C)C)cc2)n1 | inconclusive: -52.5% |
| Nc1ccccc1CNc1nc(NCCO)nc2c1ncn2CCN1CCOCC1 | inconclusive: -55.6% |
| CCc1nc(SCc2ccc(OCC(C)C)cc2)n[nH]1 | inconclusive: -41.3% |
| CC(C)c1nc(NCCO)c(C#N)c2c1CCCC2 | active: -65.7% |
| Cc1ccc2oc3c(c(=O)c2c1)C(c1cccc(O)c1)N(Cc1ccccc1Cl)C3=O (configuration not stated) | active: -74% |
| Cc1cc(C)cc(-n2ccn3c(CC(C)(C)CC(=O)O)nnc3c2=O)c1 | inactive: -6.75% |
| CCOc1ccc(Br)cc1CSC(=N)N | active: -73.3% |
| CCN1CCN(CC(=O)c2ccc(C)cc2)CC1 | active: -66.9% |
| O=C(NCc1ccccc1)C1=C[C@@H](c2csc3ccccc23)C[C@@H](OCCCCO)O1 | active: -97.1% |
| COc1cccc(C(=O)C2CN(C)CC2c2ccc(Cl)cc2)c1 (configuration not stated) | inactive: -31.8% |
| COc1ccc(CCn2nnnc2C(c2ccc(C)cc2)N2CCN(C)CC2)cc1OC (configuration not stated) | inactive: -2.18% |

| SMILES | activity change, negative = inhibition |
| --- | --- |
| O=C(CSc1ccc(Cl)cc1)N1CCN(c2ncc(C(F)(F)F)cc2Cl)CC1 | inconclusive: -52% |
| Cc1cc(C)c2c(N)c(C(=O)Nc3ncc(C)s3)sc2n1 | active: -85.8% |
| Cc1nc(-c2cccnc2)sc1C(=O)Nc1cccc(C(F)(F)F)c1 | inconclusive: -48.2% |
| CCCC(=O)NCc1ccccc1Cl | inconclusive: -48.6% |
| COc1ccc([N+](=O)[O-])cc1CSc1nnc(NC(C)=O)s1 | inactive: 24.9% |
| Cc1ccc(C(O)c2ncc(-c3ccc(Cl)cc3)[nH]2)c(C)c1 (configuration not stated) | inconclusive: -41.4% |
| CCCCN(C)CCNC(=O)CCn1nc(-c2ccc(C)cc2)ccc1=O | inconclusive: -50.4% |
| Cc1ccc(CN2CCN(/N=C/c3ccc(C(=O)O)cc3)CC2)cc1 | inactive: -20.9% |
| CNC(=S)Nc1ccc(C(N)=O)cc1 | inactive: 18.5% |
| CCOC(=O)c1cc(C)sc1NC(=O)c1ccc(Cl)s1 | inconclusive: -44.4% |
| CCOC(=O)C(C(C)=O)c1c(Br)c(O)c(O)c2c(C(=O)c3ccc(C)cc3)coc12 (configuration not stated) | active: -96.1% |
| CN(CC(=O)Nc1cccc(F)c1)C(=O)c1ccc(-c2ccc(Cl)cc2)o1 | inactive: 11.2% |
| N#Cc1ccccc1Sc1ccccc1C(=O)OCC(=O)N1CCN(C(=O)c2ccco2)CC1 | inconclusive: -42.5% |
| O=[N+]([O-])c1nn(-c2ccc(Cl)cc2)n(O)c1=NCc1ccncc1 | inconclusive: -49% |
| CCC(C)[C@H]1CNC(=S)N1CCC12CC3CC(CC(C3)C1)C2 (some centres not stated) | active: -78.7% |
| c1cc2c(cn1)cnc1cscc12 | active: -63.2% |
| COC(=O)N[C@@H]1C[C@H]2[C@@H]3CC[C@H]4C[C@@H](OC)CC[C@]4(C)[C@H]3CC[C@@]12C | inactive: -16.9% |
| CC(C)Sc1ncc(Cl)c(C(=O)N(Cc2ccc(F)cc2)C2CCS(=O)(=O)C2)n1 (configuration not stated) | inactive: 8.53% |
| CCn1c(C(=O)Nc2cc(Cl)ccc2C)cc2sc(Cl)cc21 | inactive: -25.2% |
